Measurements: the supplement of paper PMC4299490

Tests used:
[1] = system: human umbilical cord blood Lin-RholowCD34+CD38-CD45RA-CD49f+ HSC-enriched cells; test: number of CD34+CD133+CD90+ HSC-enriched cells per well on day 7 (from 40 seeded cells); higher = more HSC-enriched cell output; conditions: culture time: 7 days, basal cytokines: 100 ng/ml SCF + 50 ng/ml THPO + 100 ng/ml FLT3LG
Experimental: (§1)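 Forty human umbilical cord blood Lin-RholowCD34+CD38-CD45RA-CD49f+ HSC-enriched cells were cultured per well in serum-free medium with basal cytokines (100 ng/ml SCF, 50 ng/ml THPO, 100 ng/ml FLT3LG) plus one test ligand (recombinant protein or small-molecule inhibitor) at the stated concentration. On day 7, flow cytometry counted CD34+CD133+CD90+ HSC-enriched cells and CD34- mature cells; progenitors (CD34+ cells that are CD133- or CD90-) were calculated as total - HSC-enriched - mature. Values are absolute cell numbers per well, corrected for the 30 µl dead volume and averaged over experiments; they are not normalised to the basal-cytokine control, and they vary strongly between experiments. Concentrations are in ng/ml, except SR1, which is 0.75 µM.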

[2] = system: human umbilical cord blood Lin-RholowCD34+CD38-CD45RA-CD49f+ HSC-enriched cells; test: number of CD34- mature cells per well on day 7 (from 40 seeded cells); higher = more mature cell output; conditions: culture time: 7 days, basal cytokines: 100 ng/ml SCF + 50 ng/ml THPO + 100 ng/ml FLT3LG
Experimental: as §1

[3] = ligand concentration (ng/ml; SR1 in µM as written): 1
[4] = ligand concentration (ng/ml; SR1 in µM as written): 50
[5] = ligand concentration (ng/ml; SR1 in µM as written): 200

Substance | number [1, 3] | number [1, 4] | number [1, 5] | number [2, 3] | number [2, 4] | number [2, 5]
MWQIVFFTLSCDLVLAAAYNNFRKSMDSIGKKQYQVQHGSCSYTFLLPEMDNCRSSSSPYVSNAVQRDAPLEYDDSVQRLQVLENIMENNTQWLMKLENYIQDNMKKEMVEIQQNAVQNQTAVMIEIGTNLLNQTAEQTRKLTDVEAQVLNQTTRLELQLLEHSLSTNKLEKQILDQTSEINKLQDKNSFLEKKVLAMEDKHIIQLQSIKEEKDQLQVLVSKQNSIIEELEKKIVTATVNNSVLQKQQHDLMETVNNLLTMMSTSNSAKDPTVAKEEQISFRDCAEVFKSGHTTNGIYTLTFPNSTEEIKAYCDMEAGGGGWTIIQRREDGSVDFQRTWKEYKVGFGNPSGEYWLGNEFVSQLTNQQRYVLKIHLKDWEGNEAYSLYEHFYLSSEELNYRIHLKGLTGTAGKISSISQPGNDFSTKDGDNDKCICKCSQMLTGGWWFDACGPSNLNGMYYPQRQNTNKFNGIKWYYWKGSGYSLKATTMMIRPADF | 156 ± 32 | 136 ± 68 | 119 ± 47 | 478 ± 480 | 608 ± 420 | 634 ± 560
SPP1 | 137 ± 79 | 126 ± 70 | 136 ± 71 | 273 ± 240 | 299 ± 230 | 380 ± 410

± gives the standard deviation of the averaged measurements. The data scatter; read single values as rough.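 Three doses of each ligand were tested, with effects compared to wells receiving basal cytokines alone. SR1 was the positive control for HSC expansion, and TGFB1 (10 ng/ml) the negative control.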
